Assay [1] concerns the target Myc-tRXRα (human) (UniProt P19793). The experiment in a line: co-IP; transfected cells (HEK293T; HepG2 for Fig. 3e; A549 for Fig. 4h), with or without 9-cis-RA (10^-7 M), TNFα (10 ng/ml) or K-80003 (5 x 10^-6 M); lysis in 20 mM Tris pH 7.5, 150 mM NaCl, 1% Triton X-100; antibody 12 h at 4 °C, protein A-Sepharose, immunoblot. For orientation: A western blot detects proteins with antibodies after separation by electrophoresis.

Sequences of proteins named here, by UniProt entry; tags and fusion partners are left off. A change or cut given only in a name is not applied to a line headed by its entry. Residues count along the entry.
UniProt P19793, residues 81-462: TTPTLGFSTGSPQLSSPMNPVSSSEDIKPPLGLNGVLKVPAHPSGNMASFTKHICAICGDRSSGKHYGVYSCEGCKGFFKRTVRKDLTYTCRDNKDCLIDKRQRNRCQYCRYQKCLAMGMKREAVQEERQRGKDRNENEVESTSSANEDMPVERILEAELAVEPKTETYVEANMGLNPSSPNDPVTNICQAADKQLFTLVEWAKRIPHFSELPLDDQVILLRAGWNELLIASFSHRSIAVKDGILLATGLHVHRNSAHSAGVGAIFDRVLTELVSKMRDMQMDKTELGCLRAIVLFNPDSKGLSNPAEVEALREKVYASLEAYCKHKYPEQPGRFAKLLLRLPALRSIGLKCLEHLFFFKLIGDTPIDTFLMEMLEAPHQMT
UniProt P27986: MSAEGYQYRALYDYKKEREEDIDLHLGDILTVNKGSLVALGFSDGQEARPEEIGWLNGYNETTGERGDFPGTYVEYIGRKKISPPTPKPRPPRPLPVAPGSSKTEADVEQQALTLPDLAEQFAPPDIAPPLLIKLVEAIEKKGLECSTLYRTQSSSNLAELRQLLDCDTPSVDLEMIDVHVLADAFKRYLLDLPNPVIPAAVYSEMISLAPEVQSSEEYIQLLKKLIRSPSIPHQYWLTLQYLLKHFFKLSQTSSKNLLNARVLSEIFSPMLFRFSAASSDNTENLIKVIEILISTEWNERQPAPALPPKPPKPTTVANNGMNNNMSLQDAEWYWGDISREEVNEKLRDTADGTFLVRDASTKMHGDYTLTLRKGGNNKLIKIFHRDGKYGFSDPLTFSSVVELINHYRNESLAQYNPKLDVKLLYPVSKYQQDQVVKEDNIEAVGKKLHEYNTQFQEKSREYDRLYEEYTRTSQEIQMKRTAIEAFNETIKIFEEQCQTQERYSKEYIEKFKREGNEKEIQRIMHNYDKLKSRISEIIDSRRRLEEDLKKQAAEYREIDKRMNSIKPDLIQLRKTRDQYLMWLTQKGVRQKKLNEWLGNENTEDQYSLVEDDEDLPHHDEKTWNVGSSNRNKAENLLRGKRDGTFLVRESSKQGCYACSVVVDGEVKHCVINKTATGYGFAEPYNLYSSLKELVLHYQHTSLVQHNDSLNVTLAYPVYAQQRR

For assay [2] the target is unchanged. The experiment in a line: cross-linking; cells (HepG2, HEK293T, MCF-7) transfected for 24 h, treated with 9-cis-RA (10^-7 M) and/or K-80003 (5 x 10^-6 M) for 6 h; lysates or fractions incubated with 1 mM BS3, SDS-PAGE and western blotting.

Results are given in words; binding and its absence hold for the method and conditions named. Binding seen in cells or lysates may run through a third protein. A result given as binding can be weak or reduced; the word gives no strength.

Regarding HA-p85α-ΔiSH2 (from UniProt P27986), the binding result with Myc-tRXRα (human) [1] and with Myc-tRXRα (human) [2] was “binds” throughout.

The values are drawn from paper PMC5520057, “Modulation of nongenomic activation of PI3K signalling by tetramerization of N-terminally-cleaved RXRα” (Nature Communications, 2017).
